Reference: patent US20040072753A1, “Peptides for use in the treatment of alzheimer's disease” (priority 2000, published 2004)
No constants are given. Whether binding was seen depends on the method and setting. Some binding calls cover weakened binding; strength is not graded here.

By UniProt entry, the sequences of proteins in these tests, tags left out. Where a name states a change or a piece, a line headed by the entry shows the natural chain unless it says otherwise.
UniProt Q99714: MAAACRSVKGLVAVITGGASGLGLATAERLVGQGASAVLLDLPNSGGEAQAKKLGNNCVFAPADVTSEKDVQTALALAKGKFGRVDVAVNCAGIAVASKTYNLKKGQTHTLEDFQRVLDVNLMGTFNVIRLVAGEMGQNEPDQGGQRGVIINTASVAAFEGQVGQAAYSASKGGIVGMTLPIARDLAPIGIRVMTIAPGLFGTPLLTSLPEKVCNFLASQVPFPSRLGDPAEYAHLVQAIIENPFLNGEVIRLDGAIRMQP

Target: T1, EAβBP peptide (ERAB residues 99-108) (human) (UniProt Q99714)
T1 sequence (peptide, looked up): KTYNLKKGQT
Test: ELISA, EAβBP-coated plate, biotinylated peptide 200 pM

binding: binds
Binder: VHHQKLVFFAEDVGSNK (biotinylated (LinKit-Biolink kit, site not stated)) [Aβ 12-28]
